From article PMC3501466
No constants are given. Whether binding was seen depends on the method and setting. Binding seen in cells or lysates may run through a third protein. Binding calls can cover weak binding; strength is not graded here.

Protein sequences, listed by entry. Tags and fused reporters are not part of them. Lines headed by an entry give the natural chain unless they say otherwise; changes in a name come on top.
UniProt Q6ZSZ5: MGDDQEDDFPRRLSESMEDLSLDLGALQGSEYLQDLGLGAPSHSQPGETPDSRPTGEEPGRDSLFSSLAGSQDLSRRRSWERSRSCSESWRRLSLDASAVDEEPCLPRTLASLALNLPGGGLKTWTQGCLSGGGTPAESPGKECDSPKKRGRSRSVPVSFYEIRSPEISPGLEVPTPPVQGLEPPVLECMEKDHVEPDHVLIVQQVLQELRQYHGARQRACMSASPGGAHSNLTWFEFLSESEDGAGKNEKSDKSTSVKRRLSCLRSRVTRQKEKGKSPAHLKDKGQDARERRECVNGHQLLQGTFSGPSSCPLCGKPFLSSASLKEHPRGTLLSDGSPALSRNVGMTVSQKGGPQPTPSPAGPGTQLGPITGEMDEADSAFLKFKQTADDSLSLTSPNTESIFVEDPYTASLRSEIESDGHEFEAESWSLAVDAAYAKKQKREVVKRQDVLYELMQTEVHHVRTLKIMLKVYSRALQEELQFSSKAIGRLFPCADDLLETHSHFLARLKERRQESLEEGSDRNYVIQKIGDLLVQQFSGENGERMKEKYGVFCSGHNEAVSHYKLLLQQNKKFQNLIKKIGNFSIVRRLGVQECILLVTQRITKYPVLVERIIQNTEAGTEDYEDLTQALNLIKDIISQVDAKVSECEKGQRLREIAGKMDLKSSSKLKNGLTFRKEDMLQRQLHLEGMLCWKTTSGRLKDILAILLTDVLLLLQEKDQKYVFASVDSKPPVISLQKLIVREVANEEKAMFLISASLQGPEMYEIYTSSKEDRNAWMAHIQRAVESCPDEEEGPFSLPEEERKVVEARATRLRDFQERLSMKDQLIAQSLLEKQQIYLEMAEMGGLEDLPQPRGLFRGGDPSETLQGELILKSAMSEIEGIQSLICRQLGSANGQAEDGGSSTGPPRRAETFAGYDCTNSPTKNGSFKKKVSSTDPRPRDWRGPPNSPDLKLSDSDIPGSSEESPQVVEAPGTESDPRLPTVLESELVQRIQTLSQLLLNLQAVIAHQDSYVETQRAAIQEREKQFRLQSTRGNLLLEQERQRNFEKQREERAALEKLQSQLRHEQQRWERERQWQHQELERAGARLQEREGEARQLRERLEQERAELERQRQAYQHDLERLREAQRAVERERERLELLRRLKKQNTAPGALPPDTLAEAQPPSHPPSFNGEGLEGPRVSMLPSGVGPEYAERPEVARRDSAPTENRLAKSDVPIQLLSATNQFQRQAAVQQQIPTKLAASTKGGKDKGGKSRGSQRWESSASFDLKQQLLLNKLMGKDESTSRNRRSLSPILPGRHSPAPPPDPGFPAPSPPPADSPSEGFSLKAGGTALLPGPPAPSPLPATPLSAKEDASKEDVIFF
UniProt P35579: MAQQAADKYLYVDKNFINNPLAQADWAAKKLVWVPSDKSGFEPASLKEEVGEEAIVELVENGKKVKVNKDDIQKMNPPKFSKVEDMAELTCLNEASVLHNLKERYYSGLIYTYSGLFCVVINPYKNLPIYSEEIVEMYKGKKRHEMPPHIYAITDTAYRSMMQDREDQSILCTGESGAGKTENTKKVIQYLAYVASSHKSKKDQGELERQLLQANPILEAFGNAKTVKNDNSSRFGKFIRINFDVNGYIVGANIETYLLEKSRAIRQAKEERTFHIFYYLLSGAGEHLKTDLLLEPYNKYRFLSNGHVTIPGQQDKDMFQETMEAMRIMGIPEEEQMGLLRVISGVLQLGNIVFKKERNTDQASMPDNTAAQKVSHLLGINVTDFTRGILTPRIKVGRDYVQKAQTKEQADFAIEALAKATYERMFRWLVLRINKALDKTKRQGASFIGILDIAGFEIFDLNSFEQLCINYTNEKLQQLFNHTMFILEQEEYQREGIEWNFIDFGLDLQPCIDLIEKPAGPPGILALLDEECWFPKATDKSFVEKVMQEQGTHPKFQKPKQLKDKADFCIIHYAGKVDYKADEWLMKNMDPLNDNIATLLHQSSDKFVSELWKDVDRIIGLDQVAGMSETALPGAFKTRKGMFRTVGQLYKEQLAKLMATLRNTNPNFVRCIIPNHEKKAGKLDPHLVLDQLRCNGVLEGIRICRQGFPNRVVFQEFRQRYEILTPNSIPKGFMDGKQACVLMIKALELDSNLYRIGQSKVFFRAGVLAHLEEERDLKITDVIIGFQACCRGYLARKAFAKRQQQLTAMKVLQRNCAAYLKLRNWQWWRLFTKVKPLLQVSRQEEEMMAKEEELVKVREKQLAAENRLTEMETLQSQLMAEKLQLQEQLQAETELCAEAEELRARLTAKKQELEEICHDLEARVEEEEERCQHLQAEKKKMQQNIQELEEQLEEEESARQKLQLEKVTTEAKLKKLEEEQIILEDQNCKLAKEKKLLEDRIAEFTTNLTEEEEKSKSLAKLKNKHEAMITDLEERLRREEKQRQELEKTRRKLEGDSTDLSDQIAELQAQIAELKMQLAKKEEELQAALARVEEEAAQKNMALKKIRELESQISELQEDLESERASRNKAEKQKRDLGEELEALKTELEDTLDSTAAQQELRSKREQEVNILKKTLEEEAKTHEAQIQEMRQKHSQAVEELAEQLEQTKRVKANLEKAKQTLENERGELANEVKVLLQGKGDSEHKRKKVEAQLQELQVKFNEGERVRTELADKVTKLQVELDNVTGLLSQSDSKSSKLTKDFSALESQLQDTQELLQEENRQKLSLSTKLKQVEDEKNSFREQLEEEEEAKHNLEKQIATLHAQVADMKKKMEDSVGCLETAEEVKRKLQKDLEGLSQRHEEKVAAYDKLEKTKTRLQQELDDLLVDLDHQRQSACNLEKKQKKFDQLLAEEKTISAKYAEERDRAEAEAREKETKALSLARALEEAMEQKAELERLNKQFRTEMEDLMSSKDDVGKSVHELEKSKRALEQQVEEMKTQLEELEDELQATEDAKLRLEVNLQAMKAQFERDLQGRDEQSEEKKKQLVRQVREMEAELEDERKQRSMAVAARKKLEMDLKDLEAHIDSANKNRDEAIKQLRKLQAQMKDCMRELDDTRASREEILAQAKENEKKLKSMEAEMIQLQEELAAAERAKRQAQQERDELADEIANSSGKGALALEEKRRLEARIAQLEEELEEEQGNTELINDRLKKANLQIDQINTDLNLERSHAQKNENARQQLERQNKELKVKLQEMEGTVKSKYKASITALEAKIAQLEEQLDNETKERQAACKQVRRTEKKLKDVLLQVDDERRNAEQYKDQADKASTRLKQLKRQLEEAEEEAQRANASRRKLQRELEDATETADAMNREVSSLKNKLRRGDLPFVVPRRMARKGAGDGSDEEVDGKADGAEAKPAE
UniProt O75116: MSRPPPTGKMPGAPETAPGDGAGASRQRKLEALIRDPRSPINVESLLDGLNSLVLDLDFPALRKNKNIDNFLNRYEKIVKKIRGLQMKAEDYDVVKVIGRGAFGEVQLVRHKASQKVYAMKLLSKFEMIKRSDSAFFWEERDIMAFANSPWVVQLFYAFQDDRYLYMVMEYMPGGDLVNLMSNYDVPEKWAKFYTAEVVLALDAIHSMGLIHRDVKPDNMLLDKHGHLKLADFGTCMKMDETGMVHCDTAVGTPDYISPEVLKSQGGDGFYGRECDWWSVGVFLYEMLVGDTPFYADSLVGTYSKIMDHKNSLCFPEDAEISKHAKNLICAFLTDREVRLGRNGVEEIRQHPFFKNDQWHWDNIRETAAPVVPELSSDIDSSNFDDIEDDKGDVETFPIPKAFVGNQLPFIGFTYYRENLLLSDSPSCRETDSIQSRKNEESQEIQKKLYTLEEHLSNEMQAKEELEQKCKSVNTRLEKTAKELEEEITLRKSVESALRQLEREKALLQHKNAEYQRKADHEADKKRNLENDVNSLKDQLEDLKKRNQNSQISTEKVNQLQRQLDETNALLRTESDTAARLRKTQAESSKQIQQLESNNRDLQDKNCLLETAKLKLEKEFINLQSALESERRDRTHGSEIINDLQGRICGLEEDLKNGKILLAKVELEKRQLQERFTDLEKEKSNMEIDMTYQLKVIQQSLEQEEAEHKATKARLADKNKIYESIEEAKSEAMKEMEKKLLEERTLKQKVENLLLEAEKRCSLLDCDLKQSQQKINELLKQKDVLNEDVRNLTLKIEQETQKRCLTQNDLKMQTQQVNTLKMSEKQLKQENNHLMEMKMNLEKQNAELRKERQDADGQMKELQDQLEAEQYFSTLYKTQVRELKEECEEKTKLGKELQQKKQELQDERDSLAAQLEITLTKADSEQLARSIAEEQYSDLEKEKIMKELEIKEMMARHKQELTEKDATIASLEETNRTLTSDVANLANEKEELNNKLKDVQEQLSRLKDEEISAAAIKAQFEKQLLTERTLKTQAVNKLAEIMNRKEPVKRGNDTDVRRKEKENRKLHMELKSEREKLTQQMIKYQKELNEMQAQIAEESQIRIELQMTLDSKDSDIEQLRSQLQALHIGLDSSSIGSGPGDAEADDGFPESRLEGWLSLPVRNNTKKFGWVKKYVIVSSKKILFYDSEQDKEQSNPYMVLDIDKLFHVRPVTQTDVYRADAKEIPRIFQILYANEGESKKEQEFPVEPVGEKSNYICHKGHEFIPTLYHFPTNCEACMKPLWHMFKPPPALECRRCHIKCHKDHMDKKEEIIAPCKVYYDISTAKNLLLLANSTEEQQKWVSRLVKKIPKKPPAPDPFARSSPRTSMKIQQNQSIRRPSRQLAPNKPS

Key:
[1] = target: p114RhoGEF (human (endogenous in HCE and MDA-MB-231)) (UniProt Q6ZSZ5); assay: co-IP; endogenous p114RhoGEF immunoprecipitated from extracts of confluent, stabilised HCE monolayers, either extracted directly or wounded with multiple needle scratches and re-incubated for 45 minutes; precipitates immunoblotted for the GEF and myosin IIA
[2] = target: p114RhoGEF (human (endogenous in HCE and MDA-MB-231)) (UniProt Q6ZSZ5); assay: co-IP; endogenous p114RhoGEF immunoprecipitated from MDA-MB-231 cell extracts; precipitates immunoblotted for the GEF, myosin IIA and ROCKII

| Substance | binding [1] | binding [2] |
| --- | --- | --- |
| non-muscle myosin IIA (from UniProt P35579 1-1960) | binds | binds |
| ROCKII (from UniProt O75116 1-1388) (enzyme) | – | binds |
